Measurements as given in PMC7788286.

Protein sequences, listed by entry. Tags and fused reporters are not part of them.
UniProt P51784: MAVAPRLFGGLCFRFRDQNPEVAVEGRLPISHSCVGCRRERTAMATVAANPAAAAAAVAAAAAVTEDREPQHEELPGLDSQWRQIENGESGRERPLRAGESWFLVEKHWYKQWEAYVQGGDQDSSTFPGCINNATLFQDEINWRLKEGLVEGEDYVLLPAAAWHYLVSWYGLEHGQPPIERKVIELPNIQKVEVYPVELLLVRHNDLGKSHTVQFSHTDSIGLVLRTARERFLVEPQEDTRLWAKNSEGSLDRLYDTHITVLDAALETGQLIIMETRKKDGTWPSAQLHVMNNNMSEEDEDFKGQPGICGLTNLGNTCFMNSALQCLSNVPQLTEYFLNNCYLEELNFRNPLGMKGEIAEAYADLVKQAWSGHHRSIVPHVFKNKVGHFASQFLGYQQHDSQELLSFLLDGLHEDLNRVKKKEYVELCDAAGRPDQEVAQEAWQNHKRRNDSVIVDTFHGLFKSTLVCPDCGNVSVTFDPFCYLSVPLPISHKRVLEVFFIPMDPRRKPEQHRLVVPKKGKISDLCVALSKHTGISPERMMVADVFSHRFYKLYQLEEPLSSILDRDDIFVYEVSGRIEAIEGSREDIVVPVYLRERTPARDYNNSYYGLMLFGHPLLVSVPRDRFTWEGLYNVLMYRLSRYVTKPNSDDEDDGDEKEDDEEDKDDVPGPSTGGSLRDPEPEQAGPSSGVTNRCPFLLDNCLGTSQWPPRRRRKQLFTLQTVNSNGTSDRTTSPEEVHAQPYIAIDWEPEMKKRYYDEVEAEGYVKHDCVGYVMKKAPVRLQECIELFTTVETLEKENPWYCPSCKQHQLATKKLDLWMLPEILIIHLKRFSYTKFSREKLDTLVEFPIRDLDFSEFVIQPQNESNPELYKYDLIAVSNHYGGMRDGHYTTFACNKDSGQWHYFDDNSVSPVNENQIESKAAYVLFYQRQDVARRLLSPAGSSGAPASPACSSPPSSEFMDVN
UniProt P35637: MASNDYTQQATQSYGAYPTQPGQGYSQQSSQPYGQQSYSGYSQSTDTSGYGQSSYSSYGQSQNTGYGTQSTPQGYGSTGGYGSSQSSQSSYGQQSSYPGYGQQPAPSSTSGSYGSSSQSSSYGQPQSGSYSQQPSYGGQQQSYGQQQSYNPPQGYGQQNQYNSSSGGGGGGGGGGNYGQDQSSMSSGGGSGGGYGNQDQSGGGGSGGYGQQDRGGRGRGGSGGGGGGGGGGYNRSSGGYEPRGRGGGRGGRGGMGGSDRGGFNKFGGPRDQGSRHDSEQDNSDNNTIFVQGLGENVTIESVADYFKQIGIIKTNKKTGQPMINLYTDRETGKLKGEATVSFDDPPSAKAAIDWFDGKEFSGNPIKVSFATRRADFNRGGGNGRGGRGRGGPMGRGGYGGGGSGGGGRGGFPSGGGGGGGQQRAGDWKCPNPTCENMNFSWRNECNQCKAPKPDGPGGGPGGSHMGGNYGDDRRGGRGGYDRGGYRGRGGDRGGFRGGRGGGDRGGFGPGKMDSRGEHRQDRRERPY

T1: ubiquitin-specific protease 15 (USP15) (human (endogenous in MV4-11 and Kasumi-1)) (UniProt Q9Y4E8)
T1 sequence: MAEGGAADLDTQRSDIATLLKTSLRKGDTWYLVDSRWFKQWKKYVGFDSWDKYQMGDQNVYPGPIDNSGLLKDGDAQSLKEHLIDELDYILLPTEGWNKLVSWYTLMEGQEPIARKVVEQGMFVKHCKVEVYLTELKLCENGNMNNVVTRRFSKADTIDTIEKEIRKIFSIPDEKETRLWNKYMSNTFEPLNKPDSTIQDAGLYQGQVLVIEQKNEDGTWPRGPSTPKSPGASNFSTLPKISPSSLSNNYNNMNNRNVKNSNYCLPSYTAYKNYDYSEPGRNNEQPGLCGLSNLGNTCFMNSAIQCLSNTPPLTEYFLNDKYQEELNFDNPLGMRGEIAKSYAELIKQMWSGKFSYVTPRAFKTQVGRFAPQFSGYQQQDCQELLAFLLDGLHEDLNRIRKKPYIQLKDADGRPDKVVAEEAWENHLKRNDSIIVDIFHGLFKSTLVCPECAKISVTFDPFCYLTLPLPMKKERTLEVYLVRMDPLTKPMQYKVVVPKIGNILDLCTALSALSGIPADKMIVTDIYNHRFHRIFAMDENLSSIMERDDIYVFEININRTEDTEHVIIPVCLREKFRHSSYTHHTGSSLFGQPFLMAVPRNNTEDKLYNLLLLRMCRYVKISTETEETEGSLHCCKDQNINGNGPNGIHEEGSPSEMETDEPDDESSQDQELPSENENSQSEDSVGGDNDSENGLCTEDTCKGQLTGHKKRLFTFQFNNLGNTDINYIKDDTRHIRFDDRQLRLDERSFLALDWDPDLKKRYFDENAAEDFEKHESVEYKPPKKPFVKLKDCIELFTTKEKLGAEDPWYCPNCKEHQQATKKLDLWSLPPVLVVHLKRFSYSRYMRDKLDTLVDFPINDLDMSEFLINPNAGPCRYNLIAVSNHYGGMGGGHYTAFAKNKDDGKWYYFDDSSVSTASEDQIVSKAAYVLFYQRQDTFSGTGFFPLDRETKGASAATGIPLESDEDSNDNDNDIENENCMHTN

B1: USP4 (enzyme, UniProt Q13107 1-963)
chain: MAEGGGCRERPDAETQKSELGPLMRTTLQRGAQWYLIDSRWFKQWKKYVGFDSWDMYNVGEHNLFPGPIDNSGLFSDPESQTLKEHLIDELDYVLVPTEAWNKLLNWYGCVEGQQPIVRKVVEHGLFVKHCKVEVYLLELKLCENSDPTNVLSCHFSKADTIATIEKEMRKLFNIPAERETRLWNKYMSNTYEQLSKLDNTVQDAGLYQGQVLVIEPQNEDGTWPRQTLQSKSSTAPSRNFTTSPKSSASPYSSVSASLIANGDSTSTCGMHSSGVSRGGSGFSASYNCQEPPSSHIQPGLCGLGNLGNTCFMNSALQCLSNTAPLTDYFLKDEYEAEINRDNPLGMKGEIAEAYAELIKQMWSGRDAHVAPRMFKTQVGRFAPQFSGYQQQDSQELLAFLLDGLHEDLNRVKKKPYLELKDANGRPDAVVAKEAWENHRLRNDSVIVDTFHGLFKSTLVCPECAKVSVTFDPFCYLTLPLPLKKDRVMEVFLVPADPHCRPTQYRVTVPLMGAVSDLCEALSRLSGIAAENMVVADVYNHRFHKIFQMDEGLNHIMPRDDIFVYEVCSTSVDGSECVTLPVYFRERKSRPSSTSSASALYGQPLLLSVPKHKLTLESLYQAVCDRISRYVKQPLPDEFGSSPLEPGACNGSRNSCEGEDEEEMEHQEEGKEQLSETEGSGEDEPGNDPSETTQKKIKGQPCPKRLFTFSLVNSYGTADINSLAADGKLLKLNSRSTLAMDWDSETRRLYYDEQESEAYEKHVSMLQPQKKKKTTVALRDCIELFTTMETLGEHDPWYCPNCKKHQQATKKFDLWSLPKILVVHLKRFSYNRYWRDKLDTVVEFPIRGLNMSEFVCNLSARPYVYDLIAVSNHYGAMGVGHYTAYAKNKLNGKWYYFDDSNVSLASEDQIVTKAAYVLFYQRRDDEFYKTPSLSSSGSSDGGTRPSSSQQGFGDDEACSMDTN
B2: CHMP4B (protein, UniProt Q9H444 1-224)
chain: MSVFGKLFGAGGGKAGKGGPTPQEAIQRLRDTEEMLSKKQEFLEKKIEQELTAAKKHGTKNKRAALQALKRKKRYEKQLAQIDGTLSTIEFQREALENANTNTEVLKNMGYAAKAMKAAHDNMDIDKVDELMQDIADQQELAEEISTAISKPVGFGEEFDEDELMAELEELEQEELDKNLLEISGPETVPLPNVPSIALPSKPAKKKEEEDDDMKELENWAGSM
B3: MCM5 (protein, UniProt P33992 1-734)
chain: MSGFDDPGIFYSDSFGGDAQADEGQARKSQLQRRFKEFLRQYRVGTDRTGFTFKYRDELKRHYNLGEYWIEVEMEDLASFDEDLADYLYKQPAEHLQLLEEAAKEVADEVTRPRPSGEEVLQDIQVMLKSDASPSSIRSLKSDMMSHLVKIPGIIIAASAVRAKATRISIQCRSCRNTLTNIAMRPGLEGYALPRKCNTDQAGRPKCPLDPYFIMPDKCKCVDFQTLKLQELPDAVPHGEMPRHMQLYCDRYLCDKVVPGNRVTIMGIYSIKKFGLTTSRGRDRVGVGIRSSYIRVLGIQVDTDGSGRSFAGAVSPQEEEEFRRLAALPNVYEVISKSIAPSIFGGTDMKKAIACLLFGGSRKRLPDGLTRRGDINLLMLGDPGTAKSQLLKFVEKCSPIGVYTSGKGSSAAGLTASVMRDPSSRNFIMEGGAMVLADGGVVCIDEFDKMREDDRVAIHEAMEQQTISIAKAGITTTLNSRCSVLAAANSVFGRWDETKGEDNIDFMPTILSRFDMIFIVKDEHNEERDVMLAKHVITLHVSALTQTQAVEGEIDLAKLKKFIAYCRVKCGPRLSAEAAEKLKNRYIIMRSGARQHERDSDRRSSIPITVRQLEAIVRIAEALSKMKLQPFATEADVEEALRLFQVSTLDAALSGTLSGVEGFTSQEDQEMLSRIEKQLKRRFAIGSQVSEHSIIKDFTKQKYPEHAIHKVLQLMLRRGEIQHRMQRKVLYRLK

Target: T1, ubiquitin-specific protease 15 (USP15) (human (endogenous in MV4-11 and Kasumi-1))
Assay: affinity purification with mass spectrometry; endogenous USP15 immunoprecipitated (ab71713, protein A Dynabeads) from sonicated RIPA lysates of MV4-11 and Kasumi-1 cells, untreated or treated with 30 nM MMC for 1 h; on-bead tryptic digest, label-free LC-MS/MS; compared to IgG, n = 4/condition

binding, binds:
USP11 (from UniProt P51784 1-963) (enzyme)
FUS (fused in sarcoma) (from UniProt P35637 1-526)
B1
B2
B3

No constants are given. Whether binding was seen depends on the method and setting. In cells and extracts the contact can be indirect. Here binding means that the protein was enriched with, or labelled near, the bait; the list need not be complete.
